Data as given in PubChem BioAssay AID1259405 (NCATS, 2018)
The whole screen tested about 50,000 reagents; this is an unselected part. About 4,000 of all reagents (8%) were called active. 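Mouse siRNA library applied to hamster cells; one well for each siRNA.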 The numbers tell different reagents against one gene apart. Reagent sequences are not shown.

- Aim: 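Knock-downs that lift recombinant protein yield in hamster ovary cells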 (primary screen)
- System: Chinese hamster CHO-K1 ovary cells with stable secreted eGFP expression
- Knock-down reagent: single siRNA against mouse genes, 0.8 pmol siRNA per well (2 µl of 400 nM stock)
- Duration: 3 days
- Detection: 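Per-well intracellular GFP measured by laser scanning cytometry, plus viability from ATP luminescence, each relative to plate median of non-targeting control wells, in %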
- Direction: GFP, % of control: higher = more GFP per well, higher productivity; viability (ATP), % of control: higher = more viable cells (more ATP)
- Hit rule: 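a knock-down is called active if GFP reaches 120% or more of non-targeting control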

What is on record for Src (src proto-oncogene, non-receptor tyrosine kinase)?
GFP, % of control: 64.4; viability (ATP), % of control: 51.9; activity call: inactive

For Rsl24d1 (ribosomal L24 domain containing 1) #1, how do the results read?
GFP, % of control: 69.2; viability (ATP), % of control: 82.2; activity call: inactive

What did the screen give for Rsl24d1 (ribosomal L24 domain containing 1) #2?
GFP, % of control: 112; viability (ATP), % of control: 74.4; activity call: inactive

How did the screen score Rsl24d1 (ribosomal L24 domain containing 1) #3?
GFP, % of control: 164; viability (ATP), % of control: 93; activity call: active

How did the screen score Klf15 (Kruppel-like transcription factor 15) #1?
GFP, % of control: 82.8; viability (ATP), % of control: 74.6; activity call: inactive

With Klf15 (Kruppel-like transcription factor 15) #2, what does the deposit list?
GFP, % of control: 69.2; viability (ATP), % of control: 25.7; activity call: inactive

For Klf15 (Kruppel-like transcription factor 15) #3, what was measured?
GFP, % of control: 37.4; viability (ATP), % of control: 62.3; activity call: inactive

How did the screen score Fbxw4 (F-box and WD-40 domain protein 4) #1?
GFP, % of control: 76.3; viability (ATP), % of control: 50.2; activity call: inactive

What did the screen give for Fbxw4 (F-box and WD-40 domain protein 4) #2?
GFP, % of control: 56.7; viability (ATP), % of control: 42.7; activity call: inactive

What is on record for Fbxw4 (F-box and WD-40 domain protein 4) #3?
GFP, % of control: 164; viability (ATP), % of control: 102; activity call: active

What did the screen give for Pramel37 (PRAME like 37) #1?
GFP, % of control: 82.3; viability (ATP), % of control: 68.9; activity call: inactive

What did the screen give for Pramel37 (PRAME like 37) #2?
GFP, % of control: 89.7; viability (ATP), % of control: 97.2; activity call: inactive

How did the screen score Pramel37 (PRAME like 37) #3?
GFP, % of control: 0; viability (ATP), % of control: 102; activity call: inactive

For Ahnak (AHNAK nucleoprotein) #1, what was measured?
GFP, % of control: 71.5; viability (ATP), % of control: 74.5; activity call: inactive

With Ahnak (AHNAK nucleoprotein) #2, how do the results read?
GFP, % of control: 68.4; viability (ATP), % of control: 52.1; activity call: inactive

What did the screen give for Ahnak (AHNAK nucleoprotein) #3?
GFP, % of control: 67.1; viability (ATP), % of control: 82; activity call: inactive

Reagents listed so far marked active, once more:
Rsl24d1 (ribosomal L24 domain containing 1) #3 — GFP, % of control = 164; viability (ATP), % of control = 93; activity call = active
Fbxw4 (F-box and WD-40 domain protein 4) #3 — GFP, % of control = 164; viability (ATP), % of control = 102; activity call = active
